From publication PMC6318328, “Structural insights into trans-histone regulation of H3K4 methylation by unique histone H4 binding of MLL3/4” (Nature Communications, 2019) come the findings set out here.

Holding throughout (test): condition: peptide 1–2 mM in the syringe, protein 50–100 μM in the cell; ITC; peptide (1–2 mM) in the syringe injected into protein (50–100 μM) in the cell; 25 °C; 20 mM Tris pH 7.5, 150 mM NaCl; single-site binding model; both purified
For assay [1], the target named is T1, MLL3_(ePHD6)_(1055–1144) (human) (UniProt Q8NEZ4).
T1 sequence: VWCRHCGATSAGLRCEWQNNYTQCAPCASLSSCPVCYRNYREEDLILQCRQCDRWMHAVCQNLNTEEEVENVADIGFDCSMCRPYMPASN

Assay [2] deals with T2, MLL3_(PHD5)_(1009–1055) (human) (UniProt Q8NEZ4).
T2 sequence: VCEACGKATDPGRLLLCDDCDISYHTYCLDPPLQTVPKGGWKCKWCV

Assay [3] deals with T3, MLL3_(ePHD3)_(436–525) (human) (UniProt Q8NEZ4).
T3 sequence: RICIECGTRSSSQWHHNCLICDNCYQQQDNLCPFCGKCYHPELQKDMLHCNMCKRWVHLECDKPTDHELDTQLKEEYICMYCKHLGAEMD

Results are given in words; binding and its absence hold for the method and conditions named.

Regarding “histone H4 peptide H4_(1–12)R3me2a (from UniProt P62805 2-13)”, the binding entry in assay [1] is on record as “no binding”.

Take “histone H3 peptide H3_(1–15)K4me3 (from UniProt P68431 2-16)”: the binding entry in assay [1] is listed as “no binding”.

On to “histone H3 peptide H3_(1–15)K4me2 (from UniProt P68431 2-16)”, for which the binding entry in assay [1] is “no binding”.

Take “histone H3 peptide H3_(1–20) (from UniProt P68431 2-21)”: in assay [1], the binding result was “no binding”.

As for “histone H4 peptide H4_(1–12) (from UniProt P62805 2-13)”, the binding entry in assay [1] is reported as “no binding”.

On to “histone H4 peptide H4_(11–21) (from UniProt P62805 12-22)”, for which the binding entry in assay [2] and in assay [3] was “no binding” in each case.
